In all, about 390,000 compounds went through this assay and about 910 (0.23%) were called active. The inconclusive results got no clear call from the source; some entries with a clear call stand among them for comparison. Calls come from the whole dose curve; as a rule, active = well fitted inhibition curve with a large enough effect; inconclusive = small, poorly fitted or top-dose-only effect; inactive = no such curve, though single readings can be large or run the other way. Potencies beside an inconclusive call are fits to weak or partial responses and may not hold up.
Target: Ubiquitin carboxyl-terminal hydrolase 1 (Homo sapiens) (UniProt O94782)
Test: Inhibitors of USP1/UAF1: Primary Screen; note: nearly all actives have a fitted effect of over 60% in size
Details: recombinant USP1/UAF1, Ub-Rhodamine cleavage fluorescence; activity change, negative = inhibition: at 57.1 µM (top of the series)
Outline: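 In this screen, compounds sit with the deubiquitinase complex (1nM) for 15 min at room temperature before Ub-Rho is added at 150nM final. Fluorescence rise is then followed for 6 reads every 60 seconds.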
% is set by controls: 0 for no effect and ±100 for the full control effect; potency is the fitted concentration of half-maximal effect.

Protein sequences, listed by entry. Tags and fused reporters are not part of them. Lines headed by an entry give the natural chain unless they say otherwise; changes in a name come on top.
UniProt O94782: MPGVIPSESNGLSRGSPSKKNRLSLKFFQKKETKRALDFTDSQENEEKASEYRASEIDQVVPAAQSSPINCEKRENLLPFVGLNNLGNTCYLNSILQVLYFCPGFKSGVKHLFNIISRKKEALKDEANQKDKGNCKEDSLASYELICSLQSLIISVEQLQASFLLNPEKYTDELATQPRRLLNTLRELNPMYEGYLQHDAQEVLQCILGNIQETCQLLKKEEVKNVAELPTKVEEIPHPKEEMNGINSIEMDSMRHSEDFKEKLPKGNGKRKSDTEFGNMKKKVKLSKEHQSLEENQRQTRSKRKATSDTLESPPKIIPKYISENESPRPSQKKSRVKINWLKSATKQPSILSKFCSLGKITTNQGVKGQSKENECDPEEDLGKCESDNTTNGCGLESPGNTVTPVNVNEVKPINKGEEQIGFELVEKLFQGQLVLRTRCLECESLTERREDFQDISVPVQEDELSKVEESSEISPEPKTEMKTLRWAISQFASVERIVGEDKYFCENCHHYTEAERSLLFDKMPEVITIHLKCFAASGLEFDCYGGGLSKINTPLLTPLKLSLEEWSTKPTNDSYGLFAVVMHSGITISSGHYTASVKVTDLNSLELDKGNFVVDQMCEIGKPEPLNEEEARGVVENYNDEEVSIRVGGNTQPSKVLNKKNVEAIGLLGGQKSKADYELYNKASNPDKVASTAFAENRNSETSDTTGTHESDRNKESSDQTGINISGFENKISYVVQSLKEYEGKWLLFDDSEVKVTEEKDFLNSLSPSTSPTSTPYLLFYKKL

Row | SMILES | Potency | activity change, negative = inhibition
1 | COc1ccc(CCn2c(C)cc(C(=O)CCl)c2C)cc1OC | inconclusive: 44.7 µM [inhibitor, partial curve] | 
2 | Cc1oc2c(c1C(=O)c1ccccc1)C(=O)C(=O)c1ccccc1-2 | active: 12.6 µM | 
3 | CCC(=O)OC1(C)C(=O)C=C2C=C(c3ccc(C#N)cc3)OC=C2C1=O (centres undefined) | inconclusive: 31.6 µM [inhibitor, partial curve] | 
4 | CCCOc1ccc(CNC(=O)c2cc3ccccn3n2)cc1 | inconclusive: 0.447 µM [inhibitor, full curve, poor fit] | 
5 | CC(C)Oc1ccc(C(=O)N2CCCCC2CCN2CCCCC2)cc1 (centres undefined) | inconclusive: 3.98 µM [inhibitor, full curve] | 
6 | CC(=O)Oc1ccc(/C=N/NC(=S)Nc2ccccc2)cc1 |  | inactive: -19.7%
7 | COc1cc(/C=N/NS(=O)(=O)c2ccc(C)c([N+](=O)[O-])c2)ccc1O | inconclusive: 5.62 µM [inhibitor, partial curve] | 
8 | CCCOC(=O)c1c(-c2ccc(C)cc2C)csc1NC(=O)C1C2CCC(O2)C1C(=O)O (centres undefined) |  | inactive: -16.1%
9 | O=C1N(C2CCCC2)C[C@@H]2C[C@@H](c3cccn3-c3nccs3)N3CCC[C@@]123 |  | inactive: -10%
10 | Oc1ccc(-c2nc(-c3ccc(O)c(O)c3)cs2)cc1 |  | inactive: -19.8%
11 | CCOC(=O)c1cnc2ccc(Cl)cc2c1Nc1ccc(S(=O)(=O)Nc2ncccn2)cc1 |  | inactive: -22.6%
12 | O=C(CCNC(=O)c1ccccc1)NN=Cc1ccc(Br)o1 | inconclusive: 1 µM [inhibitor, full curve, poor fit] | 
13 | O=C(Nc1ccc(Br)cc1)c1cccc(S(=O)(=O)N2CCc3ccccc32)c1 |  | inactive: -27.3%
14 | COc1ccc(-n2nc(C(=O)Nc3cccc(Cl)c3)c3c4ccccc4n(C)c3c2=O)cc1Cl | inconclusive: 7.08 µM [inhibitor, partial curve, poor fit] | 
15 | C=CCc1ccccc1OCCNCc1ccccc1 |  | inactive: -5.16%
16 | CCOc1ccc(NC(=O)c2oc3ccccc3c2NC(=O)c2cc3ccccc3o2)cc1 | inconclusive: 112 µM [inhibitor, partial curve, poor fit] | 
17 | COc1ccccc1NC(=O)Cn1c(=O)n(-c2ccc(C)cc2)c(=O)c2c1cnn2C | inconclusive: 31.6 µM [inhibitor, partial curve, poor fit] | 
18 | CCOCCN1CCN(c2c3c(nc4cc(-c5ccc(F)cc5)nn24)CCC3)CC1 | inconclusive: 39.8 µM [inhibitor, partial curve] | 
19 | Cc1ccc(N2C(=O)CSC23C(=O)N(CC(=O)Nc2ccccc2F)c2ccccc23)cc1C (centres undefined) | inconclusive: 44.7 µM [inhibitor, partial curve] | 
20 | CN(C)c1ccc(CNC(=O)c2ccc3nc(CCc4ccccc4)oc3c2)cc1 | inconclusive: 5.01 µM [inhibitor, full curve, poor fit] | 
21 | CCc1cccc(NC(=O)CCNS(=O)(=O)c2ccc3c(c2)CCN3C(C)=O)c1 | inconclusive: 8.91 µM [inhibitor, full curve, poor fit] | 
22 | COc1ccc(N2CCN(CCCNC(=O)c3ccc4nc(N5CCCCC5)sc4c3)CC2)cc1 |  | inactive: -9.32%

Row | SMILES | Potency | activity change, negative = inhibition
23 | COc1ccc(CCC(=O)OCC(=O)Nc2ccccc2)cc1 | inconclusive: 39.8 µM [inhibitor, partial curve, poor fit] | 
24 | COc1ccc(-c2cc(C(=O)N3CCN(c4ccccc4F)CC3)c3ccccc3n2)c(OC)c1 | inconclusive: 35.5 µM [inhibitor, partial curve] | 
25 | CC[C@@H]1C=C(C(=O)O)[C@H](c2ccc(OC)c(OC)c2)N1S(=O)(=O)c1ccc(C)cc1 |  | inactive: -5.01%
26 | CC(C)c1ccc(NC(=O)CSC2=Nc3ccccc3C3=NC(CC(=O)NC4CCCCC4)C(=O)N23)cc1 (centres undefined) | inconclusive: 158 µM [inhibitor, partial curve, poor fit] | 
27 | COc1ccc(-c2c(-c3ccccc3OC)sc3ccccc23)cc1 | inconclusive: 4.47 µM [inhibitor, full curve, poor fit] | 
28 | O=C(CCc1nc2ccccc2c(=O)[nH]1)N1CCN(c2ccc(F)cc2)CC1 | inconclusive: 1.78 µM [inhibitor, partial curve] | 
29 | Cc1ccc(CSc2nc3cccnc3n2Cc2ccc(C(=O)NCCc3cccs3)cc2)cc1 |  | inactive: -12.3%
30 | Oc1ccc(C[C@H]2CNCCN2CCCCC2CCCCC2)cc1 | inconclusive: 31.6 µM [inhibitor, partial curve, poor fit] | 
31 | O=[N+]([O-])c1cc([N+](=O)[O-])c(Oc2ccc(Cl)c3cccnc23)cc1NN1CCCCC1 |  | inconclusive: -29.7% [inhibitor]
32 | COCCN1C(=O)N[C@@H](CCc2ccccc2)[C@H](C(C)=O)[C@H]1C | inconclusive: 0.251 µM [inhibitor, full curve, poor fit] | 
33 | CC1=CC2=NC(=O)C(c3ccccc3)C(=O)N2C=C1 (centres undefined) | inconclusive: 50.1 µM [inhibitor, single point] | 
34 | Cc1ccc(Sc2ccc(N3CCCC(C(=O)Nc4ccc(F)cc4F)C3)nn2)cc1 (centres undefined) | inconclusive: 0.316 µM [inhibitor, full curve, poor fit] | 
35 | CCOc1ccc(C(=O)C(CN2CCOCC2)c2ccccc2)cc1 (centres undefined) | inconclusive: 39.8 µM [inhibitor, partial curve, poor fit] | 
36 | COc1ccc(C2CC(=O)N(CC(=O)Nc3cccc(C)c3C)c3ccccc3S2)cc1OC (centres undefined) | inconclusive: 35.5 µM [inhibitor, partial curve, poor fit] | 
37 | Cc1ccc(-n2c(C)cc(C(=S)N3CCOCC3)c2C)cc1C | inconclusive: 28.2 µM [inhibitor, single point] | 
38 | Cc1cc(C(=O)Nc2sccc2C(N)=O)c(C)o1 | inconclusive: 3.98 µM [inhibitor, single point] | 
39 | COc1ccc(CNC(=O)C(C)n2c(=O)cc(C)c3c(C)nn(-c4ccccc4)c32)cc1 (centres undefined) | inconclusive: 44.7 µM [inhibitor, partial curve] | 
40 | O=C(NCCCCc1ccccc1)C1CC(c2ccccc2[N+](=O)[O-])=NO1 (centres undefined) | inconclusive: 8.91 µM [inhibitor, partial curve, poor fit] | 
41 | Cn1c(-c2ccc(Cl)nc2)nc2cc(Cl)ccc21 |  | inactive: -10.2%
42 | CCC1CN(C(=O)C2CCN(S(=O)(=O)c3c(C)noc3/C=C/c3ccccc3F)CC2)c2cc(C)ccc2O1 (centres undefined) | inconclusive: 3.55 µM [inhibitor, full curve, poor fit] | 
43 | Cc1ccc(S(=O)(=O)c2nc(-c3ccc(F)cc3)oc2N2CCOCC2)cc1 | inconclusive: 56.2 µM [inhibitor, single point] | 
44 | COc1ccc(OCc2cc(C(=O)N3CCCC(CO)C3)no2)c2ccccc12 (centres undefined) | inconclusive: 44.7 µM [inhibitor, partial curve, poor fit] | 

Row | SMILES | Potency | activity change, negative = inhibition
45 | Cc1ccn2cc(-c3ccc(C)c(NS(=O)(=O)c4ccc(Cl)cc4)c3)nc2c1 |  | inactive: -30.8%
46 | Cc1c(Cl)ccc2sc(N3CCN(C(=O)CS(=O)(=O)c4ccccc4)CC3)nc12 | inconclusive: 89.1 µM [inhibitor, partial curve, poor fit] | 
47 | CCOc1ccc(OCC)c(NS(=O)(=O)c2ccc3c(c2)CCN3C(=O)C2CCC2)c1 | inconclusive: 355 µM [inhibitor, partial curve, poor fit] | 
48 | N#Cc1cc([N+](=O)[O-])ccc1N1CCCC1 |  | inactive: -6.7%
49 | Cc1cc([N+](=O)[O-])c2[nH]c(C(=O)N/N=C/c3ccccc3C(=O)O)c(-c3ccccc3)c2c1 | inconclusive: 39.8 µM [inhibitor, partial curve, poor fit] | 
50 | COc1ccccc1CNC(=O)COC(=O)c1ccccc1SCC(=O)N1CCCC1 |  | inactive: -6.97%
51 | Cn1cnc(S(=O)(=O)N2CCCC(C(=O)Nc3ccc(OC(F)(F)F)cc3)C2)c1 (centres undefined) | inconclusive: 5.01 µM [inhibitor, partial curve] | 
52 | COC(=O)c1c(C)c2c(C)cc3ccccn3c-2c1C(=O)OC |  | inactive: -4.52%
53 | O=C(NCCc1ccccc1)c1ccc(CSc2nc3ccncc3n2Cc2ccccc2)cc1 |  | inactive: -11.4%
54 | O=C(CC(O)CCc1ccccc1)c1ccc(O)cc1 (centres undefined) | inconclusive: 35.5 µM [inhibitor, partial curve, poor fit] | 
55 | CCc1ccc(N2C(=O)CSC23C(=O)N(Cc2cccc(F)c2)c2ccccc23)cc1 (centres undefined) | inconclusive: 50.1 µM [inhibitor, partial curve, poor fit] | 
56 | CCNC(=O)C1Cc2cc(S(=O)(=O)N3CCCC3)ccc2N1C(C)=O (centres undefined) |  | inactive: -18.3%
57 | CCOC(=O)CC1C(=O)NCCN1c1nc2ccc(C)cn2c(=O)c1/C=C1\SC(=S)N(CC(C)C)C1=O (centres undefined) | active: 12.6 µM | 
58 | O=C(Cn1nc(C(F)(F)F)c2c1CCCC2)Nc1ccc(Cl)cc1 | inconclusive: 141 µM [inhibitor, partial curve, poor fit] | 
59 | O=c1c2oc3ccccc3c2n(Cc2cccc(C(F)(F)F)c2)c(=O)n1Cc1ccc2c(c1)OCO2 |  | inactive: -4.43%
60 | NS(=O)(=O)c1cc2c(cc1Cl)NC=NS2(=O)=O | inconclusive: 355 µM [inhibitor, partial curve, poor fit] | 
61 | O=C(N/N=C1/C(=O)c2cccc3cccc1c23)c1ccc(Cl)cc1 | inconclusive: 39.8 µM [inhibitor, partial curve] | 
62 | COc1ccc(Br)cc1CNC(=O)CN1C(=O)CSc2ccc(S(=O)(=O)N3CCOCC3)cc21 |  | inactive: 5.98%
63 | CCOC(=O)c1cc2c(n(-c3ccc(Cl)cc3)c1=O)CCCC2=O |  | inactive: -0.519%
64 | CCN(CC)S(=O)(=O)c1ccc(N2CC(C(=O)N3Cc4ccccc4CC3C(N)=O)CC2=O)cc1 (centres undefined) | inconclusive: 50.1 µM [inhibitor, partial curve, poor fit] | 

Given comma-delimited: entries from further up
Row,SMILES,Potency,"activity change, negative = inhibition"
48,N#Cc1cc([N+](=O)[O-])ccc1N1CCCC1,,inactive: -6.7%
52,COC(=O)c1c(C)c2c(C)cc3ccccn3c-2c1C(=O)OC,,inactive: -4.52%
54,O=C(CC(O)CCc1ccccc1)c1ccc(O)cc1 (centres undefined),"inconclusive: 35.5 µM [inhibitor, partial curve, poor fit]",

Arranged by number of heavy atoms (descending): part of the list above
Row | SMILES | Potency | activity change, negative = inhibition
51 | Cn1cnc(S(=O)(=O)N2CCCC(C(=O)Nc3ccc(OC(F)(F)F)cc3)C2)c1 (centres undefined) | inconclusive: 5.01 µM [inhibitor, partial curve] | 
58 | O=C(Cn1nc(C(F)(F)F)c2c1CCCC2)Nc1ccc(Cl)cc1 | inconclusive: 141 µM [inhibitor, partial curve, poor fit] | 
48 | N#Cc1cc([N+](=O)[O-])ccc1N1CCCC1 |  | inactive: -6.7%
